Laboratory results from article PMC6706441, “B1 oligomerization regulates PML nuclear body biogenesis and leukemogenesis” (Nature Communications, 2019).
These are yes or no findings as the source states them, for the method shown. Some results given as binding are weak or reduced against the parent protein; the word gives no strength.

The chains behind the UniProt entries cited, without tags or fusion partners.
UniProt P61956: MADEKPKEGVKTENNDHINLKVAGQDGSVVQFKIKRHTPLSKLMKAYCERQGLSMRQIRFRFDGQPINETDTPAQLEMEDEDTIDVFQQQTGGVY
UniProt P55854: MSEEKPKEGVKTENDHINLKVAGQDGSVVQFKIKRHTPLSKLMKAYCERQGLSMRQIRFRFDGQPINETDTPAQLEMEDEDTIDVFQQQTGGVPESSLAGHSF
UniProt Q9UER7: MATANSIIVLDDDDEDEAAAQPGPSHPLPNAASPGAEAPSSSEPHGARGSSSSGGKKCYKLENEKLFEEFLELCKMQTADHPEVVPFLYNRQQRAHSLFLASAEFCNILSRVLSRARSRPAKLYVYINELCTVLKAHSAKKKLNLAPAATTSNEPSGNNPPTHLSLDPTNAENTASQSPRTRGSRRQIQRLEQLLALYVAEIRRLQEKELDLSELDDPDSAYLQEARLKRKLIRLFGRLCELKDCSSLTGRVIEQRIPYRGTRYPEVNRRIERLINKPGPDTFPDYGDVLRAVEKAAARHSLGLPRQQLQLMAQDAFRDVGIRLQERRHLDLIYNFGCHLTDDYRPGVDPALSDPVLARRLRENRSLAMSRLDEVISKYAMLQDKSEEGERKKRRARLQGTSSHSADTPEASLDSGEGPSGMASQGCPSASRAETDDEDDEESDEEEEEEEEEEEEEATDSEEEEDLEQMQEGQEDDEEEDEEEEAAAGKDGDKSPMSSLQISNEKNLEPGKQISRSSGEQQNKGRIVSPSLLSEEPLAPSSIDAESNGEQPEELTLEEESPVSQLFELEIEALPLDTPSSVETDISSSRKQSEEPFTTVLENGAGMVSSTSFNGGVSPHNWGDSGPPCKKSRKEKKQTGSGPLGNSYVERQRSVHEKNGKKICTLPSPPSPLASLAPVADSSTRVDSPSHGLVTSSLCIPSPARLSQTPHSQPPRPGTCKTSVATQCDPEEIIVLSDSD

Legend:
Experiment in all cases: two-hybrid; CheckMate mammalian two-hybrid system in 293T cells; pG5/luc, pBIND bait and pACT prey at 1:1:1; luciferase 24 h after transfection, normalised to pACT vector with the pBIND bait (=1)
[1] = target: full-length PML isoform IV, wild type (mammalian two-hybrid fusions) (human (by the UniProt code P29590-5)) (UniProt P29590)
[2] = target: SUMO2 (pBIND fusion) (UniProt P61956)
[3] = target: SUMO3 (pBIND fusion) (UniProt P55854)
[4] = target: DAXX (pBIND fusion) (UniProt Q9UER7)

Measured: binding

full-length PML isoform IV, wild type (mammalian two-hybrid fusions) (from UniProt P29590-5 1-633)
binds: all assays above
